According to PMC8357189:
For at least one entry, the source does not settle the construct or the ends of the probe. Where cells or extracts were used, other partners may take part. For part of these data: Negatives hold for the conditions tested. Protein sequences can lack the tags named with them.

Columns and labels:
RHOX10-HA (mouse) [1] = molecular target: T1, RHOX10-HA (mouse) (UniProt Q4TU83); assay: EMSA, supershift; details: anti-HA supershift in lane 4, lane 5 without antibody; LightShift 1X binding buffer, 2.5% glycerol, 5 mM MgCl2, 1 ug poly(dI-dC), 0.05% NP-40, 2.5 nM probe, 3 ug nuclear extract, 20 uL, room temperature 20 min; protein in an extract; protein details: HA; label: 3' biotin
T1 sequence (looked up, limits assumed): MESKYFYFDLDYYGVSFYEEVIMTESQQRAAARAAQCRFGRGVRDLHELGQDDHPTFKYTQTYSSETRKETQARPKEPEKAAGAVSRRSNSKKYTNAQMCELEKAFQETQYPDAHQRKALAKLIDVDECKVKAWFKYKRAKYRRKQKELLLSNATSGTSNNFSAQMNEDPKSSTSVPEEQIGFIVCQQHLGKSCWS

RHOX10-HA (mouse) [2] = molecular target: T1, RHOX10-HA (mouse); assay: competition with a labelled probe; details: 200-fold excess unlabeled over labeled N1, signal greatly reduced; LightShift 1X binding buffer, 2.5% glycerol, 5 mM MgCl2, 1 ug poly(dI-dC), 0.05% NP-40, 2.5 nM probe, 3 ug nuclear extract, 20 uL, room temperature 20 min; protein in an extract; protein details: HA
RHOX10-HA (mouse) [3] = molecular target: T1, RHOX10-HA (mouse); assay: EMSA; details: LightShift 1X binding buffer, 2.5% glycerol, 5 mM MgCl2, 1 ug poly(dI-dC), 0.05% NP-40, 2.5 nM probe, 3 ug nuclear extract, 20 uL, room temperature 20 min; protein in an extract; protein details: HA; label: 3' biotin

CTCCTCCAAGCAACCATTGGCGCTCAGCTCAATTCC (double strand) [Dmrt1 promoter probe]
binding result (RHOX10-HA (mouse) [1]): binds

CTCCTCCAAGCAACCATTGGCGCTCAGCTCAATTCC (double strand) [unlabeled Dmrt1 promoter competitor]
binding result (RHOX10-HA (mouse) [2]): binds

CTCCTCCAAGCAACCCGCTCAGCTCAATTCC (double strand) [mutated Dmrt1 probe (CCAAT deleted)]
binding result (RHOX10-HA (mouse) [3]): no binding
